The values that follow come from the supplement of paper PMC4604168 (melanoma cell lines).

The other results are listed elsewhere or left out. Single values are uncertain, as repeats are few or missing.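 Imaging used 1,536-well plates; nuclei positive for cleaved PARP by antibody were divided by total DNA-stained nuclei to yield the apoptosis fraction. Doses for screening kept most cells viable, and cell lines differ markedly in resting and induced cleaved-PARP levels.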

The subject of the test is RVH-421. Put plainly: cleaved PARP positive nuclei fraction relative to DMSO control; melanoma cells; higher = more apoptosis. As to conditions: library dose: low library concentration; 72 h.
With `Cc1cc(Nc2cc(N3CCN(C)CC3)nc(/C=C/c3ccccc3)n2)n[nH]1` + OCCn1cc(-c2cnc3nnn(Cc4ccc5ncccc5c4)c3n2)cn1 [PF04217903] (first compound 0.04 µM, partner dose 1 µM), the “cleaved PARP positive nuclei fraction” value turned out to be 65.3%. As to `Nc1nc(F)nc2c1ncn2[C@@H]1O[C@H](CO)[C@@H](O)[C@@H]1O` [fludarabine] + CCc1ccc(CCOc2ccc(CC3SC(=O)NC3=O)cc2)nc1 [pioglitazone] (first compound 0.2 µM, partner dose 2 µM), the “cleaved PARP positive nuclei fraction” value is 160%. With `CS(=O)(=O)CCNCc1ccc(-c2ccc3ncnc(Nc4ccc(OCc5cccc(F)c5)c(Cl)c4)c3c2)o1` [lapatinib] + OCCn1cc(-c2cnc3nnn(Cc4ccc5ncccc5c4)c3n2)cn1 [PF04217903] (first compound 0.8 µM, partner dose 1 µM), the “cleaved PARP positive nuclei fraction” value is 44.5%. As for `CNC(=O)c1cc(Oc2ccc(NC(=O)Nc3ccc(Cl)c(C(F)(F)F)c3)cc2)ccn1` [sorafenib] + Cc1cc([N+](=O)[O-])ccc1NS(=O)(=O)c1cc(Cl)ccc1Cl [FH535] (first compound 0.4 µM, partner dose 1 µM), the “cleaved PARP positive nuclei fraction” value amounted to 224%.

As to `CN1CCN(c2ccc3nc(-c4c(N)c5c(F)cccc5[nH]c4=O)[nH]c3c2)CC1` [Dovitinib] + COc1ccc2c(c1)CCC1C2CCC2(C)C(NCCCCCCN3C(=O)C=CC3=O)CCC12 [U73122] (first compound 0.1 µM, partner dose 0.4 µM), the “cleaved PARP positive nuclei fraction” value was found to be 155%. Regarding `O=C(O)[C@@H]1[O][Sb](=[O])([O][Sb]2(=[O])[O][C@H]([C@H](O)CO)[C@H](O)[C@H](C(=O)O)[O]2)[O][C@H]([C@H](O)CO)[C@@H]1O` (stereo partly specified) [stibogluconate] + COc1cc(N2CCC(N3CCN(C)CC3)CC2)ccc1Nc1ncc(Cl)c(Nc2ccccc2S(=O)(=O)C(C)C)n1 [NVP-TAE684] (first compound 2 µM, partner dose 0.08 µM), the “cleaved PARP positive nuclei fraction” value was 84.7%.
